# Laboratory results reported in PubChem BioAssay AID624297 (National Center for Advancing Translational Sciences (NCATS), 2012).
# In all, about 340,000 compounds went through this assay and about 6,200 (1.8%) were called active. The shares of active, inactive and inconclusive entries below differ from those in the screen. Calls come from the whole dose curve; as a rule, active = well fitted activation curve with a large enough effect; inconclusive = small, poorly fitted or top-dose-only effect; inactive = no such curve, though single readings can be large or run the other way. Where the call is inconclusive, the potency comes from a doubtful curve fit.
# Assay: A quantitative high throughput screen for small molecules that induce DNA re-replication in SW480 colon adenocarcinoma cells. For re-replication activation: % of control where 0% means no effect. Note: nearly all actives have a fitted effect of over 55% in size.
# Details: Hoechst DNA content imaging, 48 h; re-replication activation: at 46.1 µM (top of the series) unless noted
# Summary of the method: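 Per well, 250 cells were exposed to pinned compound for 48 hr. Nuclear DNA was visualised with Hoechst (40 min, 37 C) and total object intensity recorded by fluorescence scanning.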
# Potency is the fitted concentration of half-maximal effect.
SMILES,Potency,re-replication activation
CC(=O)N1CCC(CCCC2CCN(C(C)=O)CC2)CC1,inactive,
O=C(CNC(=S)N(Cc1ccccc1)Cc1cccnc1)NCc1ccccc1,"inconclusive: 23.1 µM [activator, single point]",
Cc1[nH]c2ccccc2c1C(C[N+](=O)[O-])c1ccco1 (stereo unspecified),"inconclusive: 18.4 µM [activator, single point]",
O=C1c2ccccc2S(=O)(=O)N1Cc1nc2ccccc2s1,inactive,
CCN(CC)S(=O)(=O)c1ccc(N/N=C/c2cc(OC)ccc2O)nc1,"inconclusive: 2.59 µM [activator, full curve]",
COc1ccc(N(C)S(=O)(=O)c2cccc(C(=O)Nc3ccc4c(c3)OCCO4)c2)cc1,"inconclusive: 0.0052 µM [activator, full curve, poor fit]",
CCCCOC(=O)CNc1nnc(SCC(=O)OCC)[nH]c1=O,"inconclusive: 32.6 µM [activator, partial curve, poor fit]",
O=C(NC1CCCC1)C(c1ccc(F)cc1)N(Cc1ccc(F)cc1)C(=O)CCl (stereo unspecified),"inconclusive: 18.4 µM [activator, partial curve, poor fit]",
CN1CCc2nc(NC(=O)COc3ccc4ccccc4c3)sc2C1,"inconclusive: 20.6 µM [activator, single point]",
CC(C)c1ccc(C2N3CC4([N+](=O)[O-])CN2CC([N+](=O)[O-])(C3)C4(C)C)cc1 (stereo unspecified),inactive,
COc1ccccc1-n1c(SC(C)C(=O)NCC2CCCO2)nc2cc(Cl)ccc2c1=O (stereo unspecified),inactive,
O=C(CN1C(=O)NC2(CCc3ccccc32)C1=O)Nc1ccc(N2CCOCC2)cc1 (stereo unspecified),"inconclusive: 23.1 µM [activator, partial curve, poor fit]",
COc1ccc(CNC(=O)C(c2ccco2)N(C(=O)c2snc(C(N)=O)c2N)c2cccc(OC)c2)cc1 (stereo unspecified),"inconclusive: 2.91 µM [activator, full curve]",
C=CCNC(=O)c1onc(CCl)c1C(=O)OC,"inconclusive: 29.1 µM [activator, single point]",
COc1ccc(C(CNC(=O)Cc2ccccc2Cl)N2CCCCC2)cc1 (stereo unspecified),"inconclusive: 29.1 µM [activator, single point]",
Cc1c(C=O)c2ccccn2c1C(=O)c1ccc(Cl)c([N+](=O)[O-])c1,"inconclusive: 4.11 µM [activator, partial curve, poor fit]",
CN(C)C(=O)CN1CCN(c2nc3nonc3nc2N2CCCCC2)CC1,"inconclusive: 0.231 µM [activator, single point]",
COc1ccc(-n2cnnc2SCC(=O)Nc2cccc(S(=O)(=O)N3CCCCC3)c2)cc1,inactive,
Cc1ccc(-c2cc(C(=O)Nc3cc(C)on3)c3ccccc3n2)cc1,"inconclusive: 2.59 µM [activator, partial curve, poor fit]",
Cc1[nH]n(-c2ncc(-c3ccccc3)s2)c(=O)c1C(c1ccc(Cl)cc1)C(C#N)C#N (stereo unspecified),inactive,
Cc1ccc(OCCC(=O)OCC(=O)Nc2ccccc2)cc1,"inconclusive: 29.1 µM [activator, single point]",
CCCCN(C(=O)NC(=O)Nc1c(C)cc(C)cc1C)S(C)(=O)=O,"inconclusive: 14.6 µM [activator, partial curve]",

SMILES,Potency,re-replication activation
CC(C)OC(=O)c1cn(-c2ccccc2)nc1-c1ccco1,"inconclusive: 23.1 µM [activator, single point]",
CCn1cc(/C=C(\NC(=O)c2ccccc2F)C(=O)NCCCn2ccnc2)c2ccccc21,"inconclusive: 29.1 µM [activator, single point]",
COc1cc(/C=C2/SC(=S)N(C)C2=O)ccc1OC(=O)c1ccco1,inactive,
CC(C)C[C@H](NC(=O)c1nc[nH]c1C(=O)NCCCCCNC(=O)OC(C)(C)C)C(=O)OC(C)(C)C,"inconclusive: 23.1 µM [activator, single point]",
C/C=C(\C)CN1CCC(n2nccc2NC(=O)CCc2ccccc2)CC1,inactive,
C=C(C)CSc1nc(N)cc(=O)[nH]1,"inconclusive: 29.1 µM [activator, single point]",
O=C(Nc1ccc(S(=O)(=O)N2CCOCC2)cc1)c1ccc(Cl)c([N+](=O)[O-])c1,"inconclusive: 29.1 µM [activator, single point]",
COc1ccccc1OC(=O)c1ccc(SC)cc1OC,"inconclusive: 18.4 µM [activator, single point]",
CC1CCN(S(=O)(=O)c2ccc3c(c2)C(=NO)c2cc(S(=O)(=O)N4CCC(C)CC4)ccc2-3)CC1,"inconclusive: 8.2 µM [activator, partial curve, poor fit]",
CCOC(=O)c1cnn(-c2nc(SC)nc3sc4c(c23)CCCC4)c1N,"inconclusive: 29.1 µM [activator, single point]",
CC(C)c1ccc(NC(=O)CSc2n[nH]c(=O)n2Cc2ccco2)cc1,inactive,
O=C(O)COc1ccc(C(=O)c2cccs2)c(Cl)c1Cl,inactive,
Cc1onc(-c2c(F)cccc2Cl)c1C(=O)N1CCCc2ccccc21,"inconclusive: 23.1 µM [activator, single point]",
CCOc1ccc(C(=O)N/N=C/c2cccc3cccnc23)cc1,"inconclusive: 29.1 µM [activator, single point]",
CNC(=O)c1ccc(NC(=O)CC23CC4CC(CC(C4)C2)C3)cc1,inactive,
COc1ccc(OC2C(=O)N(c3ccc(C)c(C)c3)C2c2ccc(OC)c(OC)c2)cc1 (stereo unspecified),"inconclusive: 32.6 µM [activator, partial curve, poor fit]",
C=CCn1c(NS(=O)(=O)c2ccccc2)c(S(=O)(=O)c2ccc(C)cc2)c2nc3ccccc3nc21,"inconclusive: 18.4 µM [activator, single point]",
CCC(Sc1ccc(Cl)cc1)C(=O)Nc1nnc(-c2cccc([N+](=O)[O-])c2)s1 (stereo unspecified),inactive,
CCOC(=O)c1ccc(NC(=O)CCc2nc(-c3ccccc3Cl)no2)cc1,"inconclusive: 18.4 µM [activator, partial curve, poor fit]",
COc1ccccc1NC(=O)C(C)OC(=O)C1CCC(C(C)(C)C)CC1 (stereo unspecified),inactive,
CCc1noc(C)c1C(=O)N1CCCC(C(=O)c2cc(F)ccc2F)C1 (stereo unspecified),"inconclusive: 29.1 µM [activator, partial curve, poor fit]",
Cc1ccc(OCc2cc(C(=O)N3CC4C[C@@H]5CC3C[C@H](C4)C5)no2)cc1C,"inconclusive: 29.1 µM [activator, single point]",

SMILES,Potency,re-replication activation
O=C(NCCN1CCCC1)c1ccc(Cn2c(=S)[nH]c3ccc(Br)cc3c2=O)cc1,"inconclusive: 29.1 µM [activator, single point]",
CCc1ccccc1NC(=O)Nc1cccc(F)c1,"inconclusive: 29.1 µM [activator, single point]",
Cc1ccc(F)c(N=Cc2c(O)c3ccccc3oc2=O)c1,inactive,
COc1cccc(-c2noc(C3CCCN(C(=O)c4cccc(F)c4)C3)n2)c1 (stereo unspecified),"inconclusive: 9.2 µM [activator, single point]",
COc1cccc(N/C(SCc2ccccc2Cl)=C(/C#N)C(=O)NCc2cccs2)c1,inactive,
Cc1ccccc1N/C(SCc1ccc(Cl)cc1)=C(/C#N)C(=O)NCc1ccco1,"inconclusive: 23.1 µM [activator, single point]",
O=CCCCC=O,inactive,
COc1cc(F)ccc1S(=O)(=O)NCc1cccnc1,inactive,
CCN1C(=O)/C(=C/c2ccc(C)s2)SC1=Nc1ccc(OC)cc1,"inconclusive: 29.1 µM [activator, partial curve, poor fit]",
O=C(NCC(c1ccco1)N1CCCC1)c1ccc(S(=O)(=O)Nc2ccccc2Cl)cc1 (stereo unspecified),"inconclusive: 3.26 µM [activator, single point]",
COC(=O)C1=CN(c2ccc(F)cc2)C=C(C(=O)OC)C1c1ccc(O)cc1,inactive,
COc1ccc(NC(=O)COc2ccc(CNCCCN3CCOCC3)cc2OC)cc1,"inconclusive: 16.4 µM [activator, single point]",
COc1ccc(NC(=S)NC(=O)C2CCC2)cc1,"inconclusive: 2.06 µM [activator, partial curve]",
CCCn1c(N)c(C(=O)CN2CCN(S(=O)(=O)c3cccc(Cl)c3)CC2)c(=O)[nH]c1=O,"inconclusive: 0.92 µM [activator, full curve, poor fit]",
COC(=O)C1C=CC(OC2OC(COC(C)=O)C(OC(C)=O)C(OC(C)=O)C2OC(C)=O)n2c(=O)n(-c3ccccc3)c(=O)n21 (stereo unspecified),"inconclusive: 2.31 µM [activator, single point]",
Cc1c(-c2ccccc2)c(-c2ccc(OCCN(C)C)cc2)n2ccccc12,"inconclusive: 16.4 µM [activator, single point]",
COc1cccc(NC(=O)CSc2nc3ncc(Br)cc3[nH]2)c1,inactive,
Cc1nn2cc(-c3cccc(Cl)c3)cnc2c1Br,"inconclusive: 8.2 µM [activator, partial curve, poor fit]",
O=C(NCc1ccccc1)c1cccc(S(=O)(=O)NCc2ccccc2)c1,inactive,
COC(=O)C1=C(C)N(c2cc(Cl)cc(Cl)c2)C(=O)C1,"inconclusive: 23.1 µM [activator, single point]",
CCN(CC)c1ccc(/C=N/N2CCN(Cc3ccccc3Cl)CC2)c(O)c1,"inconclusive: 13 µM [activator, partial curve, poor fit]",
O=[N+]([O-])c1ccccc1S(=O)(=O)N1CCCc2ccccc21,,inconclusive: 43.4% [activator]

# Among those listed so far, these contain a tert-butyl group.
SMILES,Potency,re-replication activation
CC(C)C[C@H](NC(=O)c1nc[nH]c1C(=O)NCCCCCNC(=O)OC(C)(C)C)C(=O)OC(C)(C)C,"inconclusive: 23.1 µM [activator, single point]",
COc1ccccc1NC(=O)C(C)OC(=O)C1CCC(C(C)(C)C)CC1 (stereo unspecified),inactive,
